Source: US20250314656A1, “GENETICALLY ENCODED FLUORESCENT INDICATOR OF D-2-HYDROXYGLUTARATE” (priority 2024, published 2025)
Where two headings read alike, the source gives them in different places. At least one compound was matched to its structure with a doubt left.

Tests used:
[1] = tested on: D2HGlo mutants T52A, S69A and S69T; test: D-2-HG and L-2-HG titrations of site-directed mutants; conditions: site-directed mutagenesis of predicted binding domains
[2] = biological target: D2HGlo (Variant 2, SEQ ID NO: 4; Variant 2 truncated DhdR SEQ ID NO: 2, two residues removed from each terminus, between ECFP and cpVenus173) (Achromobacter denitrificans, UniProt A0ABZ3FXY3); type: binding, Achromobacter denitrificans NBRC 15125; conditions: concentrations up to 100 μM

SMILES | affinity of site-directed mutants [1] | response of D2HGlo (FRET ratio) to metabolite [2] | response of D2HGlo (FRET ratio) to metabolite ([2]; listed as pyruvate)
O=C(O)CC[C@@H](O)C(=O)O [D-2-HG, D-2-hydroxyglutarate] | unable to lower the affinity | – | –
O=C(O)CC(C(=O)O)C(O)C(=O)O (centres unmarked) [Isocitrate] | – | does not respond | –
O=C(O)CC[C@H](O)C(=O)O [L-2-HG, L-2-Hydroxyglutarate] | unable to lower the affinity | – | –
CC(=O)C(=O)O [Pyruvate, pyruvate] | – | does not respond | did not respond
